We go through nine molecules from PMC10826163.

These are yes or no findings as the source states them, for the method shown. Binding seen in cells or lysates may run through a third protein. A yes stands for co-enrichment or nearness to the bait. Other partners may have been found. Tags and fused reporters may be left off the sequences shown.

The labels stand for the following.
B1: Alpha-internexin (protein, UniProt P23565 1-505)
chain: MSFGSEHYLCSASSYRKVFGDGSRLSARLSGPGASGSFRSQSLSRSNVASTAACSSASSLGLGLAYRRLPASDGLDLSQAAARTNEYKIIRTNEKEQLQGLNDRFAVFIEKVHQLETQNRALEAELAALRQRHAEPSRVGELFQRELRELRAQLEEASSARAQALLERDGLAEEVQRLRARCEEESRGREGAERALKAQQRDVDGATLARLDLEKKVESLLDELAFVRQVHDEEVAELLATLQASSQAAAEVDVAVAKPDLTSALREIRAQYESLAAKNLQSAEEWYKSKFANLNEQAARSTEAIRASREEIHEYRRQLQARTIEIEGLRGANESLERQILELEERHSAEVAGYQDSIGQLESDLRNTKSEMARHLREYQDLLNVKMALDIEIAAYRKLLEGEETRFSTSGLSISGLNPLPNPSYLLPPRILSSTTSKVSSAGLSLKKEEEEEEEEEEGASKEVTKKTSKVGESFEETLEETVVSTKKTEKSTIEEITTSSSQKM
B2: Junction plakoglobin (protein, UniProt Q6P0K8 1-745)
chain: MEVMNLIEQPIKVTEWQQTYTYDSGIHSGVNTCVPSVSSKGLLDEDDTCGRQYTLKKTTTYTQGVPQSQGDLEYQMSTTARAKRVREAMCPGVSGEDSSLLLATQVEGQTTNLQRLAEPSQLLKSAIVHLINYQDDAELATRALPELTKLLNDEDPVVVTKAAMIVNQLSKKEASRRALMGSPQLVAAVVRTMQNTSDLDTARCTTSILHNLSHHREGLLAIFKSGGIPALVRMLSSPVESVLFYAITTLHNLLLYQEGAKMAVRLADGLQKMVPLLNKNNPKFLAITTDCLQLLAYGNQESKLIILANGGPQGLVQIMRNYSYEKLLWTTSRVLKVLSVCPSNKPAIVEAGGMQALGKHLTSNSPRLVQNCLWTLRNLSDVATKQEGLENVLKILVNQLSVDDVNVLTCATGTLSNLTCNNSKNKTLVTQNSGVEALIHAILRAGDKDDITEPAVCALRHLTSRHPEAEMAQNSVRLNYGIPAIVKLLNQPNQWPLVKATIGLIRNLALCPANHAPLQEAAVIPRLVQLLVKAHQDAQRHVAAGTQQPYTDGVRMEEIVEGCTGALHILARDPMNRMEIFRLNTIPLFVQLLYSSVENIQRVAAGVLCELAQDKEAADAIDAEGASAPLMELLHSRNEGTATYAAAVLFRISEDKNPDYRKRVSVELTNSLFKHDPAAWEAAQSMIPINEPYADDMDATYRPMYSSDVPLDPLDMHMDMDGDYPMDTYSDGLRPPYPAADHMLA
B3: Drebrin (protein, UniProt Q07266 1-707)
chain: MAGVSFSGHRLELLAAYEEVIREESAADWALYTYEDGSDDLKLAASGEGGLQELSGHFENQKVMYGFCSVKDSQAALPKYVLINWVGEDVPDARKCACASHVAKVAEFFQGVDVIVNASSVEDIDAGAIGQRLSNGLARLSSPVLHRLRLREDENAEPVGTTYQKTDAAVEMKRINREQFWEQAKKEEELRKEEERKKALDARLRFEQERMEQERQEQEERERRYREREQQIEEHRRKQQSLEAEEAKRRLKDQSIFGDQRDEEEESQMKKSESEVEEAAAIIAQRPDNPREFFRQQERVASASGGSCDAPSPFNHRPGRPYCPFIKASDSGPSSSSSSSSSPPRTPFPYITCHRTPNLSSSLPCSHLDSHRRMAPTPIPTRSPSDSSTASTPITEQIERALDEVTSSQPPPPPPPPPPAQEAQESAPRLDGEEVCKEAKVAAAPQVWAGCAEEPPRAQEPPLLQSSPTEDLMCTESPEQAVLAASPEPDASVTSVADAHAADTIETTTATTATTIADNVTPAAASLIDLWPGNGEEASTPQAEPRVPTPPSGAEASLAEVPLLNEAAQEPLPPVGEGCANLLNFDELPEPPATFCDPEEEAEGEPLAASQVLTMPSALEEVDQVLEQELEPEPHLLTNGETTQKEGTQQASEGYFSQSQEEEFAQSEEPCAKAPPPVFYNKPPEIDITCWDADPVPEEEEGFEGGD
B4: Ras-related protein Rab-3A (protein, UniProt P63012 1-220)
chain: MASATDSRYGQKESSDQNFDYMFKILIIGNSSVGKTSFLFRYADDSFTPAFVSTVGIDFKVKTIYRNDKRIKLQIWDTAGQERYRTITTAYYRGAMGFILMYDITNEESFNAVQDWSTQIKTYSWDNAQVLLVGNKCDMEDERVVSSERGRQLADHLGFEFFEASAKDNINVKQTFERLVDVICEKMSESLDTADPAVTGAKQGPQLTDQQAPPHQDCAC
B5: Thy-1 membrane glycoprotein (protein, UniProt P01830 20-130)
chain: QRVISLTACLVNQNLRLDCRHENNTNLPIQHEFSLTREKKKHVLSGTLGVPEHTYRSRVNLFSDRFIKVLTLANFTTKDEGDYMCELRVSGQNPTSSNKTINVIRDKLVKC
B6: Voltage-dependent anion-selective channel protein 2 (protein, UniProt P81155 1-295)
chain: MAECCVPVCQRPICIPPPYADLGKAARDIFNKGFGFGLVKLDVKTKSCSGVEFSTSGSSNTDTGKVSGTLETKYKWCEYGLTFTEKWNTDNTLGTEIAIEDQICQGLKLTFDTTFSPNTGKKSGKIKSAYKRECINLGCDVDFDFAGPAIHGSAVFGYEGWLAGYQMTFDSAKSKLTRSNFAVGYRTGDFQLHTNVNNGTEFGGSIYQKVCEDFDTSVNLAWTSGTNCTRFGIAAKYQLDPTASISAKVNNSSLIGVGYTQTLRPGVKLTLSALVDGKSFNAGGHKLGLALELEA
B7: mRNA-decapping enzyme 1A (protein, UniProt D4AE80 1-601)
chain: MALSCSPVRPRPRGSAWRSKMELLSRAEQEMSLAALKQHDPYITSIADLTGQVALYTFCPKANQWEKTDIEGTLFVYRRSASPYHGFTIVNRLNMHNLVEPVNKDLEFQLHEPFLLYRNASLSIYSIWFYDKNDCHRIAKLMADVVEEEARRAQQAARDKQSPSQANGCSDQRPIDILEMLSRAKDEYERNQMGGSNISSPGLQPSSQLSNLGSTETLEETPSGSQDKSAPSGHKHLTVEELFGTSLPKEQPAPMGLESEDTDKLLGDAPQKEPSSFLPFPFEQSGGAPQAENLGVHSVTHHTVQPEVSAPVLITPASIAQSGDKHPPSYTLPLSPVLSPTLPAEAPTTQVPHLPRNSTMMQAVRTTPRQKSPLLNQPVPELSHSSLIASQSPFRAPVSLANTAGTAIPSSDLLQKLRLTPQHDQIQAQPLGKGAMAPNFSSAAGQLATPESFIEPSSKTAAARAAVAASLSNMVLAPTLQSMQQNQDPEVFAQPKVLPSAIPIAGPPLVTATTTAVSSVLLSPSVFQQTVPRSADLERKASCPSPLTIGAENQRKPSIILSRSQLQDTLIHLIKNDSGFLSTLHEVYLQVLTKSKDNHSL
B8: Coronin (protein, UniProt F1LMV9 1-480)
chain: MTVTKMSWRPQYRSSKFRNVYGKVANREHCFDGIPITKNVHDNHFCAVNARFLAIVTESAGGGSFLVIPLEQTGRIEPNYPKVCGHQGNVLDIKWNPFIDNIIASCSEDTSVRIWEIPEGGLKRNMTEALLELHGHSRRVGLVEWHPTTNNILFSAGYDYKVLIWNLDIGEPVKMIDCHTDVILCMSFNTDGSLLTTTCKDKKLRVIEPRSGRVLQEANCKNHRVNRVVFLGNMKRLLTTGVSRWNTRQIALWDQEDLSMPMIEEEIDGLSGLLFPFYDADTHMLYLAGKGDGNIRYYEISTEKPYLSYLMEFRSPAPQKGLGVMPKHGLDVSACEVFRFYKLVTLKGLIEPISMIVPRRSDSYQEDIYPMTPGTEPALTPDEWLGGVNRDPVLMSLKEGYKKSSKVVFKAPIREKKSVVVNGIDLLENVPPRTENELLRMFFRQQDEIRRLKEELAQKDIRLRQLQLELKNLRNNPKNC
B9: EF-hand domain-containing protein D2 (protein, UniProt Q4FZY0 1-239)
chain: MATDELASKLSRRLQMEDEGGEATEQPGLNGAAAAAAEAPDETAQALGSADDELSAKLLRRADLNQGIGEPQSPSRRVFNPYTEFKEFSRKQIKDMEKMFKQYDAGKDGFIDLMELKLMMEKLGAPQTHLGLKSMIQEVDEDFDSKLSFREFLLIFRKAAAGELQEDSGLHVLARLSEIDVSTEGVKGAKNFFEAKVQAINVSSRFEEEIKAEQEERKKQAEEVKQRKAAFKELQSTFK

The target in the assay is Traf2-and NcK-interacting kinase (rat (endogenous in rat hippocampus)). As to the kind of experiment: affinity purification with mass spectrometry; anti-TNIK immunoprecipitate from rat hippocampal lysate (control: normal mouse IgG), SDS-PAGE, silver stain, bands seen only in the TNIK Co-IP cut out, trypsin digest, LC-MS/MS, Mascot against UniProt Rattus norvegicus, score >=20.
With B1, the binding entry is given as “binds”.

Regarding B2, the binding result is listed as “binds”.

As for B3, the binding result is on record as “binds”.

In the case of B4, the binding entry is “binds”.

Take B5: the binding result is “binds”.

Take B6: the binding result is on record as “binds”.

Turning to B7, the binding result is “binds”.

In the case of B8, the binding entry is recorded as “binds”.

Take B9: the binding result is reported as “binds”.
